# Experimental data: PubChem BioAssay AID588590 (National Center for Advancing Translational Sciences (NCATS), 2011)
# Amino acid sequences for entries named in this document (tags omitted). A change or cut given only in a name is not applied to a line headed by its entry.
# UniProt Q9UNA4: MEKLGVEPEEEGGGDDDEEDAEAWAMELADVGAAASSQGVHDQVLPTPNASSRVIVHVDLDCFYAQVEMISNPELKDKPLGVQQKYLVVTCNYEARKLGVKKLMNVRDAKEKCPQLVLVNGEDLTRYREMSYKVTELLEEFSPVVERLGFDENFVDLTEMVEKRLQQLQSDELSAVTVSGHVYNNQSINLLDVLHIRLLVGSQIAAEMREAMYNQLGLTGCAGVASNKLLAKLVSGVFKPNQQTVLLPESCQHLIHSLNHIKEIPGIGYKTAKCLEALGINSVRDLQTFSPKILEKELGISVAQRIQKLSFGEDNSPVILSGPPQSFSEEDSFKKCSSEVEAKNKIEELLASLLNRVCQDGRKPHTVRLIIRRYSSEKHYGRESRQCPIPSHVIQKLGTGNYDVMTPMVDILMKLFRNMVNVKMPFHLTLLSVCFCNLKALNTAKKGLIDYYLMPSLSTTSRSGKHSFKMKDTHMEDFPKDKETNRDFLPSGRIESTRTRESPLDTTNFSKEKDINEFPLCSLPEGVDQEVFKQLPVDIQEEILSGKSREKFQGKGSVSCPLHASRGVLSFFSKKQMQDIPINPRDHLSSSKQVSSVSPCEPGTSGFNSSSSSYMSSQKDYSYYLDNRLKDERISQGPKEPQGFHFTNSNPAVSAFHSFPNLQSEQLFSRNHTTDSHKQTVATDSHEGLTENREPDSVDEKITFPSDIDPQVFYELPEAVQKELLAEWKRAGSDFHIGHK
# Values joined by “and” are separate entries in the source; they are usually repeats but may differ in a detail not shown here. Identical values can stand only once. Out of some 390,000 compounds screened, about 4,000 (1%) were called active. Inconclusive results, whose numbers are uncertain, are shown with a selection of clear calls. Calls follow the shape of the dose curve; as a rule, active = well fitted inhibition curve with a large enough effect; inconclusive = small, poorly fitted or top-dose-only effect, or another doubt; inactive = no such curve, though single readings can be large or run the other way. A potency beside an inconclusive call is a rough fit, not a confirmed value.
# Biological target: DNA polymerase iota (Homo sapiens) (UniProt Q9UNA4)
# Assay: qHTS for Inhibitors of Polymerase Iota
# Conditions: Pol iota fluorescent replication assay, 10 min; series mostly up to 115 µM
# In short: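 Fluorescent replication assay read twice, at 0 min and 10 min after adding 50 nM (final) substrate. Enzyme (10 nM) and compounds were first incubated 15 min at room temperature; enzyme-free buffer wells were negative controls.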
# Potency is read from the fitted curve at half-maximal effect.
row,SMILES,Potency
1,COc1ccc2oc(C(=O)OCC(=O)N(C)c3ccccc3)c(C)c2c1,"inconclusive: 63.1 µM [inhibitor, partial curve, poor fit]"
2,COc1ccc(Nc2nc(N)nc(CSc3nc4cc(OC)ccc4s3)n2)cc1,"inconclusive: 5.01 µM [inhibitor, full curve, poor fit]"
3,CC(C)c1nn2c(=O)cc(COC(=O)CNC(=O)c3ccccc3)nc2s1,"inconclusive: 5.01 µM [inhibitor, full curve, poor fit]"
4,CCOC(=O)CSc1nc(NC#N)nc(N(CC)CC)n1,"inconclusive: 12.6 µM [inhibitor, single point]"
5,Cc1ccccc1CCNC(=O)Cn1nc(C)c2c(C)n(-c3ccccc3)nc2c1=O,"inconclusive: 28.2 µM [inhibitor, full curve]"
6,COc1cccc2c1NC(C(=O)O)C1CC=CC21 (stereo not given),active: 1 µM
7,CCc1ccc(NC(=O)C(=O)NCC(c2cccnc2)N2CCOCC2)cc1 (stereo not given),"inconclusive: 89.1 µM [inhibitor, partial curve, poor fit]"
8,CCCN1CNc2c(c(=O)[nH]c(=S)n2CCc2ccc(Cl)cc2)C1,inactive
9,O=C(COC(=O)CNC(=O)c1ccccc1F)Nc1ncc(Cl)cc1Cl,"inconclusive: 50.1 µM [inhibitor, single point]"
10,CC(=O)c1ccc(NC(=O)CSc2nc3[nH]ncc3c(=O)[nH]2)cc1,"inconclusive: 100 µM [inhibitor, single point]"
11,COCCn1c(SCC(=O)c2ccc(Cl)cc2)nnc1C(C)C,"inconclusive: 28.2 µM [inhibitor, partial curve, poor fit]"
12,Nc1c(C(=O)OCC(=O)Nc2ccc(Cl)cc2[N+](=O)[O-])[nH]c(=O)[nH]c1=O,"inconclusive: 31.6 µM [inhibitor, partial curve, poor fit]"
13,Cc1ccc(N2CCN(C(=O)c3noc4c3COc3ccc(C)cc3-4)CC2)c(C)c1,inactive
14,COc1ccc(Cl)cc1N(C)C(=O)C(=O)Nc1ccc2nc3n(c(=O)c2c1)CCCCC3,inactive
15,NC(N)=NCCCCN=C(N)N,"inconclusive: 11.2 µM [inhibitor, partial curve, poor fit]"
16,CCOC(=O)c1[nH]c2ccc(OC)cc2c1NC(=O)c1ccc(OC)c(OC)c1,"inconclusive: 79.4 µM [inhibitor, partial curve, poor fit]"
17,CC(NC(=O)CNC(=O)c1ccco1)c1ccc(S(N)(=O)=O)cc1 (stereo not given),"inconclusive: 44.7 µM [inhibitor, partial curve, poor fit]"
18,CCC(=O)Nc1ccc(C(=O)CSc2nc3ccccc3[nH]2)cc1,"inconclusive: 20 µM [inhibitor, full curve]"
19,O=C(O)c1cc(N/N=C2/CC(c3ccccc3)Oc3ccccc32)ccc1Cl (stereo not given),"inconclusive: 22.4 µM [inhibitor, full curve]"
20,Cc1ccc2oc(=O)n(CCNC(=O)Nc3ccc(C)c(F)c3)c2c1,inactive
21,Cc1ccc(CNC(=O)c2c(-c3ccccc3Cl)noc2C)cc1,inactive
22,NC(=O)N/N=C/c1cn(-c2ccccc2)nc1-c1cccnc1,"inconclusive: 14.1 µM [inhibitor, full curve, poor fit]"

row,SMILES,Potency
1,CC(=O)c1ccc(N2CCN(C(=S)Nc3cccc(F)c3)CC2)cc1,"inconclusive: 20 µM [inhibitor, single point]"
2,COc1ccccc1NC(=O)C1=C(C)NC(=O)NC1c1ccco1 (stereo not given),"inconclusive: 79.4 µM [inhibitor, single point]"
3,COc1ccc(C[C@@H]2C(=O)N[C@H](C)C(=O)N(C)[C@@H]3Cc4ccc(cc4)Oc4cc(ccc4O)C[C@H](C(=O)N[C@@H](C)C(=O)N[C@H](C)C(=O)N2C)N(C)C3=O)cc1,inactive
4,O=C(/C=C/c1ccc2c(c1)OCO2)NCc1ccco1,"inconclusive: 79.4 µM [inhibitor, partial curve]"
5,COc1ccccc1OC(=O)c1cc2ccccc2oc1=O,inactive
6,O=C(O)CCCCCN1C(=O)CSC1=S,"inconclusive: 12.6 µM [inhibitor, full curve, poor fit]"
7,COc1ccc(CNC(=O)CS(=O)Cc2nc(-c3ccccc3C)oc2C)cc1 (stereo not given),"inconclusive: 12.6 µM [inhibitor, partial curve, poor fit]"
8,O=C(Nc1ccc2[nH]c(=S)sc2c1)Nc1ccccc1F,"inconclusive: 14.1 µM [inhibitor, partial curve]"
9,Cc1cc(/C=C2\C(=N)N3N=C(CC(=O)N4CCOCC4)SC3=NC2=O)c(C)n1-c1ccccc1,"inconclusive: 50.1 µM [inhibitor, single point]"
10,Cc1ccc2c(c1)c(C)cc(=O)n2CCC(=O)O,inactive
11,NC(=O)SCC(=O)Nc1ccc(Cl)c(Cl)c1,"inconclusive: 28.2 µM [inhibitor, partial curve, poor fit]"
12,Cc1cc(N=Nc2ccc(C)c(N=Nc3cc(C)c(N)cc3N)c2)c(N)cc1N,"inconclusive: 17.8 µM [inhibitor, full curve, poor fit] and inconclusive: 28.2 µM [inhibitor, single point]"
13,O=C(CCn1cnc2onc(-c3ccc(F)cc3)c2c1=O)N1CCN(c2cccc(Cl)c2)CC1,"inconclusive: 79.4 µM [inhibitor, partial curve, poor fit]"
14,COc1cc2c(cc1NC(=O)C(C)OC(=O)c1ccc(S(=O)(=O)Nc3ccccc3Cl)cc1)oc1ccccc12 (stereo not given),"inconclusive: 50.1 µM [inhibitor, partial curve, poor fit]"
15,CC(C(=O)Nc1ccc(C(=O)O)c(O)c1)N1C(=O)/C(=C\c2ccco2)SC1=S (stereo not given),"inconclusive: 3.16 µM [inhibitor, partial curve, poor fit]"
16,CN(C)S(=O)(=O)c1cccc(-c2nn(-c3ccccc3)cc2/C=C2\SC(=S)NC2=O)c1,"inconclusive: 22.4 µM [inhibitor, full curve]"
17,CCOC(=O)c1cccc(N2C(=O)Nc3ccccc3N2O)c1,inactive
18,COc1cc(/C=N/NC(=O)c2ccc3c(c2)OCO3)ccc1O,inactive
19,CCOc1ccc(CNC(=O)C2Cc3cc(S(=O)(=O)N4CCCCCC4)ccc3N2C(C)=O)cc1 (stereo not given),inactive
20,CCC(C(=O)NCCCN(CC)CC)n1ncn2c(cc3occc32)c1=O (stereo not given),inactive
21,Oc1c(Cl)cc(Cl)cc1C=Nc1ccc(Br)cc1,inactive
22,COCCCn1c(=O)/c(=C\c2ccccc2OC(F)F)s/c1=C(/C#N)C(=O)NC(C)C,inactive

row,SMILES,Potency
1,CCCCC/C=C\C/C=C\C/C=C\CCCCC(=O)O,active: 39.8 µM
2,COc1ccc(N2Cc3cccc(C(=O)NC(C)CCc4ccco4)c3C2=O)cc1 (stereo not given),"inconclusive: 10 µM [inhibitor, partial curve, poor fit]"
3,CCCCCn1c(=N)n(CC(O)COc2ccccc2OC)c2ccccc21 (stereo not given),"inconclusive: 89.1 µM [inhibitor, partial curve, poor fit]"
4,CCc1ccc(NC(=O)CCn2cnc3ccccc3c2=O)cc1,"inconclusive: 89.1 µM [inhibitor, single point]"
5,CCOc1ccc(S(=O)(=O)N2CCCCC2)cc1NC(=O)Cc1cccs1,"inconclusive: 44.7 µM [inhibitor, single point]"
6,CN(C)c1ccc(/C=C/c2cc[n+](C)c3ccc4ccccc4c23)cc1,inactive
7,O=C(CSc1ccc(Cl)cc1)Nc1cccc(NC(=O)c2ccco2)c1,"inconclusive: 112 µM [inhibitor, partial curve, poor fit]"
8,O=C(CSc1nnc(-c2ccccc2O)o1)N1CCOCC1,"inconclusive: 79.4 µM [inhibitor, partial curve]"
9,Cc1ccc(S(=O)(=O)N2CCC(C(=O)NC3CC3)CC2)cc1,"inconclusive: 100 µM [inhibitor, single point]"
10,NC(=O)C1CCN(c2nc(-c3ccccc3C(F)(F)F)cs2)CC1,"inconclusive: 6.31 µM [inhibitor, full curve, poor fit]"
11,N#Cc1c2c(c(=S)n(-c3ccccc3)c1N)CCCC2,"inconclusive: 28.2 µM [inhibitor, partial curve, poor fit]"
12,Cc1ccc2oc(=O)c3cc(C(=O)NCCN4CCN(C)CC4)sc3c2c1,inactive
13,Cc1cccc(OC(C)C(=O)N(Cc2cccs2)C2CCS(=O)(=O)C2)c1C (stereo not given),inactive
14,COc1ccc(C(C)=O)cc1COc1ccc([N+](=O)[O-])c(C)c1,"inconclusive: 89.1 µM [inhibitor, single point]"
15,CCCOc1ccc(/C(O)=C2/C(=O)C(=O)N(c3ccccn3)C2c2ccc(OC)cc2)cc1C (stereo not given),"inconclusive: 31.6 µM [inhibitor, partial curve, poor fit]"
16,COc1ccccc1NC(=O)Nc1cccc(NC(C)=O)c1,"inconclusive: 7.08 µM [inhibitor, full curve, poor fit]"
17,O=C(COc1ccc(/C=N/NC(=O)c2ccc(O)cc2)cc1)Nc1cccc([N+](=O)[O-])c1,"inconclusive: 15.8 µM [inhibitor, partial curve, poor fit]"
18,COc1ccc(C(=O)COC(=O)c2ccc3c(c2)OCCO3)c(OC)c1,"inconclusive: 14.1 µM [inhibitor, full curve, poor fit]"
19,COc1ccc(C2=NOC(Cn3nc(C(=O)NCc4ccccc4OC)cc3-c3ccccc3)C2)cc1 (stereo not given),"inconclusive: 25.1 µM [inhibitor, single point]"
20,COc1ccccc1CNC(=O)Cn1nc(C)c2nn(-c3ccc(Cl)cc3)c(C)c2c1=O,inactive
21,COC(=O)C1=C(COc2ccccc2)NC(=O)NC1c1ccc(Br)cc1 (stereo not given),"inconclusive: 56.2 µM [inhibitor, partial curve, poor fit]"
